Test results: PubChem BioAssay AID540336 (Broad Institute, 2011)
About 520 (0.16%) of roughly 330,000 compounds were called active. The inconclusive results got no clear call from the source; some entries with a clear call stand among them for comparison.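 How the source made its calls: active means inhibition of at least 50% in every replicate; inconclusive means best replicate reaches 50% inhibition but some replicates fall short; inactive means the rest.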

Amino acid sequences for entries named in this document (tags omitted).
UniProt Q5AAJ8, whole entry, looked up: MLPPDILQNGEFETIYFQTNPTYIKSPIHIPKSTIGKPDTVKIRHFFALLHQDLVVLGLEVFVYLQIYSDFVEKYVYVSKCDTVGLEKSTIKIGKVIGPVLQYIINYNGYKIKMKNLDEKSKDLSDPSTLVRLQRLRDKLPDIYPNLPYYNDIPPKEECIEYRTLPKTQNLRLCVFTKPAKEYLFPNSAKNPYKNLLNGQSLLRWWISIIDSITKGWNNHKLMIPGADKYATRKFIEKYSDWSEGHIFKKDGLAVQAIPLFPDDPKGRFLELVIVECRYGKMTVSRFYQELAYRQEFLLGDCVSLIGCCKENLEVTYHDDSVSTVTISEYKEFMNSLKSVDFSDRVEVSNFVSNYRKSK

Molecular target: Histone acetyltransferase RTT109 (Candida albicans (strain SC5314 / ATCC MYA-2876)) (UniProt Q5AAJ8)
Experiment: Rtt109-Vps75 histone acetyltransferase blockade – biochemical, ThioGlo CoA-SH fluorescence, plate reader, primary screen (AID 540336)
Details: purified Rtt109/Vps75, ThioGlo CoA-SH fluorescence, 4 h; at 34.9 µM; hits give high values

inhibition, inconclusive:
COc1ccc(S(=O)(=O)NCC(c2cccnc2)N2CCN(c3ccc(F)cc3)CC2)cc1C (centres undefined) 34.7%, COc1ccc(C(=S)N2CCOCC2)cc1OS(=O)(=O)c1ccccc1[N+](=O)[O-] 27.9%, COc1ccc(/C=C/C(=O)NNc2c(F)c(F)cc(F)c2F)cc1OC 21.8%, Cc1ccc(S(=O)(=O)Nc2ccc(Br)cc2/C=N/n2cnnc2)cc1 26.9%, CCC(C)(C)c1ccc(OCCCC[n+]2cccc(C)c2)c(C(C)(C)CC)c1 43%, Cc1ccc(NC(=O)CN2C(=O)S/C(=C\c3cc(C)n(-c4cccc(C(=O)O)c4)c3C)C2=O)cc1 42.3%, CC(C)C(=O)NS(=O)(=O)c1ccc(N)cc1 13.3%, CCN(CC)CCNc1nc2cc(OC)c(OC)cc2c2nc(-c3ccccc3)nn12 44.5%, C#CCOCCOCCOCCNc1nc(N2CCN(C(=O)CCCCCCCCCCNC(=O)Cn3cc(CCCCCN)nn3)CC2)nc(N2CCN(C(=O)CCCCCCCCCCNC(=O)[C@H]([C@@H](C)CC)n3cc(CCCCCN)nn3)CC2)n1 50.3%, O=C(Nc1ccc(Cl)cc1)Nc1ccc(N2CCC(C(F)(F)F)CC2)nc1 29.9%, COC(=O)c1ccc(NC(=O)COc2ccc(C3C(C#N)=C(N)Oc4c3ccc3ccccc43)cc2OC)cc1 (centres undefined) 35.6%, O=C(CCC1CCCN(C(=O)c2cccc(F)c2)C1)N1CCN(c2ccccn2)CC1 (centres undefined) 24.4%, COc1cc(C(=O)NC2CCN(C)CC2)ccc1Nc1ncc2c(n1)N(C1CCCCC1)CCC(=O)N2C 56.7%, Cc1csc(C(C)NC(=O)c2ccc(OC3CCN(CCc4ccccc4)CC3)cc2)n1 (centres undefined) 30.3%, O=C1CC(Sc2nnc(-c3ccccc3O)o2)C(=O)N1c1ccccc1 (centres undefined) 62.4%, CN(C(=O)c1ccc2c(c1)C(=O)N(CCC1=CCCCC1)C2=O)C1CCCCC1 41.7%, S=C(Nc1cccc2ccccc12)NN1CCOCC1 34.8%, CC(C)(c1ccccc1)c1ccc(OCC(O)CNC2CCN(Cc3ccccc3)CC2)cc1 (centres undefined) 61.2%, O=C(NC(Cc1c[nH]c2ccccc12)C(=O)NCc1ccc(F)cc1)OCc1ccccc1 (centres undefined) 25.4%, COc1nc(N/N=C/c2cc3c(cc2Br)OCO3)nc(N2CCOCC2)n1 41.6%, OCCC1CN(Cc2ccc(Oc3ncccn3)cc2)CCN1C1CCCC1 (centres undefined) 28.5%, Oc1ccc(Cl)cc1Sc1cc(Cl)ccc1O 40.8%, CC12CNCC(C)(CN(C(c3ccccc3)c3ccccc3)C1)C2 33.3%, Cc1[nH]c2ccccc2c1N=Nc1cccc(C(=O)O)c1 50.6%, Fc1ccc(Br)cc1C1C=C(c2ccc(Br)s2)Nc2ncnn21 (centres undefined) 14.8%, COc1ccccc1NC(=S)N1CCN(C(=O)C2CCCO2)CC1 (centres undefined) 38.6%, N#CC1=C(N)NC(SCC(=O)c2ccccc2)=C(C#N)C12CCCC2 46.6%, O=C(O)CCC(=O)Nc1ccccc1C(=O)NCCc1ccccc1 28.2%

inhibition, active:
COC(=O)CCS(=O)(=O)c1nc(-c2ccccc2)cc(C(F)(F)F)n1 67.6%, O=[N+]([O-])c1ccc(Sc2cccc[n+]2[O-])c2nonc12 123%, Cc1ccc(C#N)c(SCc2nnc(-c3ccc(Cl)cc3)o2)n1 57.6%, O=C(CCC(=O)OCC(=O)c1ccc([N+](=O)[O-])cc1)Nc1ccccc1Cl 74.9%, CCN(CC)c1ccc(C(=S)N2CCN(c3ccccc3)CC2)cc1 52.8%, Cc1cccc2sc(N(CCCN(C)C)C(=O)CCc3ccccc3)nc12 58.1%, CCCCc1ccc(-n2c(Cc3cccs3)n[nH]c2=S)cc1 71.8%, COc1cccc(-c2ccc(C#N)c(SCC(=O)NCCc3ccc(Cl)cc3)n2)c1 58.6%, CC(=O)N(c1ccc2oc(=O)sc2c1)S(=O)(=O)c1cccc2cccnc12 135%, COc1cc(-c2nnc(SCC(=O)OC3CCCCC3)o2)cc(OC)c1OC 58.5%, COc1ccc(OC)c(/C=C2\SC(=S)N(C(C(=O)O)c3ccccc3)C2=O)c1 (centres undefined) 65.5%, COCc1ccc(CN2CCC(n3nccc3NC(=O)C(OC)c3ccccc3)CC2)o1 (centres undefined) 58.6%

inhibition, inactive:
O=C(NC12CC3CC(CC(C3)C1)C2)c1cc(F)c(F)c(F)c1F -9.8%, CCCc1nc(SCC(=O)c2ccc3c(c2)NC(=O)CO3)[nH]c(=O)c1CC 0.387%, O=c1cc(-c2ccco2)oc2c1ccc1ccccc12 -2.99%, COc1ccc(N2C(=O)CSC2c2ccc(F)c(F)c2)cc1 (centres undefined) -5.3%, CCN(CC)CCn1c2ccccc2c2n[nH]c(=S)nc21 -3.03%, COc1ccc(CN2CCCC(C(=O)Nc3cccc(-n4cccn4)c3)C2)c(F)c1 (centres undefined) 0.252%, CCN(C(=O)COC(=O)c1ccccc1Cc1ccccc1)c1c(N)n(Cc2ccccc2)c(=O)[nH]c1=O 12.1%, O=[N+]([O-])c1ccc(S(=O)Cc2ccccc2)c([N+](=O)[O-])c1 (centres undefined) -0.875%, CCc1ccc(N(CC(=O)NCC2CCCO2)C(=O)CCC(=O)Nc2nccs2)cc1 (centres undefined) 4.9%, CCCn1c(C)cc(/C=C(\C#N)C(=O)OCC(=O)NC(=O)NC(C)(C)C)c1C 0.041%, O=C(Nc1ccccc1C(=O)N1CCCCC1)c1cc(F)c(F)cc1Cl -6.97%, CC(C)(C)c1ccc(OCC(=O)N2CCCCCC2)c(Br)c1 -4.9%, Cn1c(=O)cc(N2CCOCC2)[nH]c1=O -1.99%, Cc1ccc(NS(=O)(=O)c2cc(C(=O)N(C)C3CCN(C)CC3)ccc2Cl)cc1Cl -16.6%
